In all, about 360,000 compounds went through this assay and about 7,500 (2.1%) were called active. The shares of active, inactive and inconclusive entries below differ from those in the screen. Calls follow the shape of the dose curve; as a rule, active = well fitted inhibition curve with a large enough effect; inconclusive = small, poorly fitted or top-dose-only effect, or effect the other way; inactive = flat fitted curve, though single readings scatter. Where the call is inconclusive, the potency comes from a doubtful curve fit.
assay: Nrf2 qHTS screen for inhibitors; settings: A549 ARE-Fluc reporter, luciferase luminescence, 18-24 h; series mostly up to 46 µM; also: nearly all actives have a fitted effect of over 60% in size
Summary of the method: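 Nrf2 function is reported as luminescence of an ARE-controlled luciferase in A549 cells. Compounds were tested at several concentrations, and a CellTiter-Fluor read on the same wells flagged cytotoxicity.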
Potency is read from the fitted curve at half-maximal effect.

Row | SMILES | Potency
1 | CCOc1ccc(S(=O)(=O)N2CCCC(C(=O)NCc3ccncc3)C2)cc1C (stereo not drawn) | inconclusive: 4.61 µM [falling, full curve]
2 | CCOC(=O)C1=C(CNC(C)(C)CC(C)(C)C)NC(=O)NC1c1cccc([N+](=O)[O-])c1 (stereo not drawn) | inconclusive: 29.1 µM [falling, partial curve, poor fit]
3 | COc1ccccc1N(CC(=O)Nc1ccc(S(=O)(=O)N2CCOCC2)cc1)S(C)(=O)=O | inconclusive: 32.6 µM [falling, single point]
4 | CC1CC(NS(=O)(=O)c2cccs2)CC(C)(C)C1 (stereo not drawn) | inconclusive: 25.9 µM [falling, partial curve]
5 | CCOc1cc(CNCCc2ccc(S(N)(=O)=O)cc2)cc(Cl)c1OCc1ccccc1 | inactive
6 | Cc1ccc(OCC(=O)c2cc(C)c(C)cc2C)c([N+](=O)[O-])n1 | inactive
7 | Cc1[nH]n(-c2ccccc2)c(=O)c1C=Nc1ccc2[nH]c(=O)[nH]c2c1 | inactive
8 | Cc1ccc(C(=O)Nc2ccc3c(c2)C(=O)N(CC2CCCO2)C3=O)cc1 (stereo not drawn) | inconclusive: 23.1 µM [falling, single point]
9 | Cc1nc(-c2ccc(S(=O)(=O)N3CCN(c4cccc(C)c4C)CC3)cc2)co1 | inconclusive: 5.8 µM [falling, partial curve, poor fit]
10 | CCOC(=O)c1nc(Nc2ccccc2OC)c2ccccc2n1 | inconclusive: 20.6 µM [falling, partial curve, poor fit]
11 | O=C(CSc1nc2ccccc2c(=O)n1Cc1ccco1)c1ccc(F)cc1 | active: 11.6 µM
12 | CCC(C)(C(=O)NC1CCCC1)N(Cc1cccs1)C(=O)c1ccc2c(c1)OCO2 (stereo not drawn) | inconclusive: 29.1 µM [activator, single point]
13 | COc1ccccc1-c1nc(SCc2ccccn2)n[nH]1 | inconclusive: 14.6 µM [activator, partial curve]
14 | COCc1c(C(=O)OCC(=O)c2c(N)n(CC(C)C)c(=O)n(C)c2=O)oc2ccccc12 | active: 20.6 µM
15 | COc1ccc(C)cc1NC(=O)CSc1nnc(COc2ccccc2)n1Cc1ccco1 | inconclusive: 18.4 µM [falling, single point]
16 | OCC1OC(n2cnc3c(/C=C(\O)c4ccccc4)ncnc32)C(O)C1O (stereo not drawn) | inconclusive: 23.1 µM [falling, single point]
17 | CCOC(=O)c1c(NC(=O)c2c(Br)cnn2CC)sc(C)c1C | inconclusive: 6.51 µM [falling, single point]
18 | CC(C)c1nnc(NC(=O)CC23CC4CC(CC(C4)C2)C3)s1 | inconclusive: 10.3 µM [activator, partial curve, poor fit]
19 | COC(=O)C1CCN(C(=O)c2ccc(OC3CCN(Cc4ccccn4)CC3)cc2)CC1 | inconclusive: 18.4 µM [activator, single point]
20 | CN1CCN(C(=O)c2cc3sc4ccccc4c3s2)CC1 | inconclusive: 3.26 µM [activator, full curve]
21 | Nc1nc(Sc2ccc(C(F)(F)F)cn2)n[nH]1 | inactive
22 | C/C(=C\C(=O)c1ncc(C(F)(F)F)cc1Cl)N(C)C | inconclusive: 1.46 µM [falling, partial curve, poor fit]
23 | CCN1CCN(S(=O)(=O)c2ccc(-c3cc(C)no3)s2)CC1 | inconclusive: 1.03 µM [activator, full curve, poor fit]

For reference, some entries already given.
Row | SMILES | Potency
10 | CCOC(=O)c1nc(Nc2ccccc2OC)c2ccccc2n1 | inconclusive: 20.6 µM [falling, partial curve, poor fit]
11 | O=C(CSc1nc2ccccc2c(=O)n1Cc1ccco1)c1ccc(F)cc1 | active: 11.6 µM

More compounds follow:

Row | SMILES | Potency
24 | C#CCOc1ccc(/C=C2/C(=O)N(c3cccc(C(=O)O)c3)N=C2C)cc1OC | inconclusive: 20.6 µM [activator, single point]
25 | COc1ccccc1N/N=C1\COC(C)(C)CC1=O | inactive
26 | COc1ccc(-n2nnnc2CNC(=O)C(=O)c2c(C)[nH]c3ccccc23)cc1 | inconclusive: 20.6 µM [falling, partial curve, poor fit]
27 | N#Cc1ccc(S(=O)(=O)N2CCN(c3nc(-c4ccccc4)nc4ccccc34)CC2)cc1 | inactive
28 | Cc1ccc(NC(=O)NCC2CC2(Cl)Cl)cc1 (stereo not drawn) | inconclusive: 20.6 µM [activator, single point]
29 | Cc1ccc(-n2ncc(C(=O)Nc3ccc4c(c3)OCO4)c2C2CCN(C(=O)OC(C)(C)C)CC2)c(C)c1 | inactive
30 | CCOC(=O)CSc1nc(C)cc(Oc2ccc(=O)n(C)n2)n1 | inconclusive: 0.0259 µM [falling, full curve, poor fit]
31 | COc1ccc2c(c1OC)C(=O)N(c1nccs1)C2 | inconclusive: 2.91 µM [activator, full curve]
32 | COc1cc(-c2noc(-c3ccc(NCc4ccco4)c([N+](=O)[O-])c3)n2)cc(OC)c1OC | inconclusive: 18.4 µM [activator, single point]
33 | CCCOc1ccc(NC(=O)CC2C(=O)N(c3ccc(OCC)cc3)C(=S)N2C2CC2)cc1 (stereo not drawn) | inconclusive: 6.51 µM [falling, partial curve, poor fit]
34 | CCOc1cc(N2CCOCC2)c(OCC)cc1NC(=O)CN1CCC(Cc2ccccc2)CC1 | inconclusive: 29.1 µM [falling, partial curve, poor fit]
35 | Cc1ccc(NC(=O)CN2C(=O)N/C(=C/c3cccn3-c3ccc(C(=O)O)cc3)C2=O)cc1 | inconclusive: 16.4 µM [activator, partial curve, poor fit]
36 | CC1CCC(C(C)C)C(OC(=O)Cn2c(-c3ccc(Br)cc3)[n+](C)c3ccccc32)C1 (stereo not drawn) | active: 20.6 µM
37 | O=C(Nc1cccc(Cl)c1)c1cnn2cccnc12 | inconclusive: 29.1 µM [activator, single point]
38 | C=CC1CN2CCC1CC2[C@@H](O)c1ccnc2ccc(OC)cc12 (stereo partly drawn) | inactive
39 | CN(CC(=O)Nc1ccccc1Br)C(=O)c1cccc(S(=O)(=O)N2CCc3ccccc32)c1 | inconclusive: 29.1 µM [falling, single point]
40 | COc1ccc(-c2nc3c(-c4ccc(F)cc4)cnn3cc2C)cc1F | inconclusive: 13 µM [falling, partial curve, poor fit]
41 | COc1cc(SC)ccc1C(=O)Nc1ccccc1 | inconclusive: 0.731 µM [activator, full curve]
42 | O=C(NC1CCN(S(=O)(=O)c2ccc(F)cc2)CC1)c1ccccc1 | inconclusive: 0.259 µM [falling, full curve, poor fit]
43 | CCc1ccc(C(=O)NC(=S)Nc2ccc3c(c2)OCCO3)cc1 | inconclusive: 6.51 µM [activator, full curve]
44 | C=CCn1cc(CN2CCC(C(=O)Nc3ccc(Oc4cccnc4)cc3)CC2)c(C)n1 | inactive
45 | O=C(C1=C[C@@H](C2CCCCC2)C[C@@H](OCc2ccc(CO)cc2)O1)N1CCOCC1 | inactive
46 | O=C1/C(=C\c2ccccc2)CN(C(=O)CCN2CCCCC2)C/C1=C/c1ccccc1 | inactive

Of the compounds above, three have a nitro group on carbon:
Row | SMILES | Potency
2 | CCOC(=O)C1=C(CNC(C)(C)CC(C)(C)C)NC(=O)NC1c1cccc([N+](=O)[O-])c1 (stereo not drawn) | inconclusive: 29.1 µM [falling, partial curve, poor fit]
6 | Cc1ccc(OCC(=O)c2cc(C)c(C)cc2C)c([N+](=O)[O-])n1 | inactive
32 | COc1cc(-c2noc(-c3ccc(NCc4ccco4)c([N+](=O)[O-])c3)n2)cc(OC)c1OC | inconclusive: 18.4 µM [activator, single point]

Next part.

Row | SMILES | Potency
47 | O=C(Nc1nnc(S(=O)(=O)N2CCCc3ccccc32)s1)c1cccc(F)c1 | inactive
48 | COc1ccc(N(C(=O)c2cccc(C)c2)S(=O)(=O)c2ccc(C)cc2)cc1 | inactive
49 | CN(c1ccccc1)S(=O)(=O)c1cccc(NC(=O)CSc2nnc(N)s2)c1 | inconclusive: 20.6 µM [falling, single point]
50 | Cc1c(C)c2ccc(OCC(=O)N(C)C)c(C)c2oc1=O | inactive
51 | CCOC(=O)c1ccc(NC(=O)c2c(C)nn(-c3ccc(F)cc3)c2-n2cccc2)cc1 | inactive
52 | COc1ccc(N(Cc2cccs2)C(=O)c2ccc(C(C)(C)C)cc2)cc1 | inconclusive: 25.9 µM [falling, single point]
53 | O=S(=O)(NCCc1ccccc1)c1cccs1 | inactive
54 | COc1ccc(S(=O)(=O)Oc2ccc(C(=S)N3CCOCC3)cc2OC)cc1 | inconclusive: 29.1 µM [falling, single point]
55 | O=C(c1ccc(Cl)cc1)N1CCN(c2ccnc3cc(Cl)ccc23)CC1 | active: 20.6 µM
56 | Cc1cc(C(=O)NC2CCCN(Cc3ccc(Cl)cc3)C2)c(C)o1 (stereo not drawn) | inactive
57 | CC(=O)c1ccc(OCC(O)CN2CCN(CCO)CC2)cc1 (stereo not drawn) | inconclusive: 29.1 µM [activator, single point]
58 | CCc1ccccc1NC(=O)Nc1nnc(N(C)Cc2ccccc2)s1 | inactive
59 | COc1cccc(-c2nnc(-c3ccc(C)o3)o2)c1 | inconclusive: 0.411 µM [activator, full curve, poor fit]
60 | Cn1c(=O)c2c(nc(NN=C3CCCCC3)n2C)n(C)c1=O | inconclusive: 5.17 µM [activator, full curve, poor fit]
61 | CCN(CC)CCN(C(=O)c1cc2c(ccc3ccccc32)oc1=O)c1nc2cc3c(cc2s1)OCCO3 | inconclusive: 29.1 µM [falling, single point]
62 | CCOC(=O)C1CCN(Cc2cc(=O)oc3c(C)c(C)ccc23)CC1 | inconclusive: 29.1 µM [falling, single point]
63 | CC(=O)N(C)c1ccc(N=Nc2ccc3ncccc3c2)cc1 | inconclusive: 1.03 µM [activator, full curve]
64 | COc1ccc(S(=O)(=O)Cc2ccc(C(=O)N3CCOCC3)o2)cc1 | inactive
65 | Cc1ccsc1/C=N/Nc1nc(=O)[nH]nc1C | inconclusive: 1.46 µM [activator, partial curve]
66 | O=S(=O)(c1ccc(Cl)cc1)N1CCC(O)(CN2CCN(Cc3ccccc3)CC2)CC1 | inactive
67 | Cn1c(N)c(-c2nc3cccnc3n2C)sc1=S | inconclusive: 3.66 µM [activator, full curve]
68 | COc1ccc(S(=O)(=O)N(C)C)cc1NC(=O)Cc1ccc(S(=O)(=O)N2CCOCC2)s1 | inconclusive: 18.4 µM [falling, single point]

Reference: PubChem BioAssay AID504444 (National Center for Advancing Translational Sciences (NCATS), 2011)
